According to PubChem BioAssay AID246 (DTP/NCI, 2004):
The list does not hold the whole screen: it gathers tests that were run many times, whatever their T/C, doses with no T/C, and many T/C values between a quarter and a half above the control. Further doses and runs are listed elsewhere. T/C is the treated group as % of the vehicle group. Some doses have a count of surviving animals in place of a T/C: the source holds a T/C of zero for them, seemingly a mark for toxic or unscored doses. Some survivor counts are full or nearly so, which does not show that the dose was tolerated: survival well below the control is almost never listed, so the zero probably covers shortened survival too. Counts of survivors are from the toxicity check (mostly the fifth day) where no day follows; animals may have died later. Schedules are NCI's codes, taken here to give the interval after Q, in days (D) or hours (H), and the number of doses after X. Some schedules carry Z or #; the key to these is not given. Some entries were tested several times; their values stand side by side, smallest first. For survival time, the PubChem record calls one and a half times the control and up active, and a quarter to a half above the control has no call in these data; cut-offs in other NCI protocols can differ. Signs of the kind (2×) say how often a value occurs here. Some T/C values are followed by the survivors on the day toxicity was checked, most often the fifth; where none is given, no animal had died by that day.

Test system: BDF1 mice, P1081 chloroleukemia ip, survival T/C
Experiment: NCI In Vivo Anticancer Drug Screen. Data for tumor model P1081 Chloroleukemia (intraperitoneal) in B6D2F1 (BDF1) mice
Details: T/C endpoint: mean survival time, higher T/C = longer survival
Experimental: The antitumor activity of compounds was measured in mice bearing transplantable tumors. Survival or tumor size were measured and the results are expressed as the measurement made in the treated group (T) divided by the measurement made in the vehicle treated control group (C). The tumor model used in this assay is P1081 Chloroleukemia (intraperitoneal) in B6D2F1 (BDF1) mice

[1] = dose: 16.0 mg/kg/injection, schedule: Q01DX Z (ip), vehicle: carboxymethylcellulose (CMC)
[2] = dose: 125.0 mg/kg/injection, schedule: Q01DX010 (ip), vehicle: saline
[3] = dose: 63.0 micrograms/kg/injection, schedule: Q01DX Z (ip), vehicle: alkali diluted with saline
[4] = dose: 8.0 mg/kg/injection, schedule: Q01DX010 (ip), vehicle: saline
[5] = dose: 0.5 mg/kg/injection, schedule: Q01DX010 (ip), vehicle: saline
[6] = dose: 5.0 mg/kg/injection, schedule: Q01DX010 (ip), vehicle: saline
[7] = dose: 120.0 mg/kg/injection, schedule: Q01DX Z (ip), vehicle: carboxymethylcellulose (CMC)

O=c1cn[nH]c(=O)[nH]1
T/C [1]: 131 % of control [5 of 6 alive] | survivor count [1]: 6 of 6 | T/C (dose: 31.25 mg/kg/injection, schedule: Q01DX Z (ip), vehicle: carboxymethylcellulose (CMC)): 141 % of control | T/C (dose: 62.5 mg/kg/injection, schedule: Q01DX Z (ip), vehicle: carboxymethylcellulose (CMC)): 137 % of control | survivor count [2]: 6 of 6

Nc1nc(N)c2nc(CNc3ccc(C(=O)NC(CCC(=O)O)C(=O)O)cc3)cnc2n1 (centres undefined)
T/C (dose: 0.1 mg/kg/injection, schedule: Q01DX010 (ip), vehicle: other): 125 and 140 % of control | survivor count (dose: 0.4 mg/kg/injection, schedule: Q01DX010 (ip), vehicle: other): 3 of 6 | T/C [3]: 135 % of control | survivor count [3]: 6 of 6 | survivor count (dose: 125.0 micrograms/kg/injection, schedule: Q01DX Z (ip), vehicle: alkali diluted with saline): 6 of 6 | survivor count (dose: 250.0 micrograms/kg/injection, schedule: Q01DX Z (ip), vehicle: alkali diluted with saline): 6 of 6 | survivor count (dose: 500.0 micrograms/kg/injection, schedule: Q01DX Z (ip), vehicle: alkali diluted with saline): 5 of 6

CS(=O)(=O)OCCN(CCOS(C)(=O)=O)c1ccc(N=O)cc1
survivor count (dose: 2.0 mg/kg/injection, schedule: Q01DX010 (ip), vehicle: saline): 6 of 6 | survivor count (dose: 4.0 mg/kg/injection, schedule: Q01DX010 (ip), vehicle: saline): 6 of 6 | survivor count [4]: 6 of 6 | survivor count (dose: 16.0 mg/kg/injection, schedule: Q01DX010 (ip), vehicle: saline): 1 of 6

O[C@H](CN1CC1)[C@@H](O)CN1CC1
T/C (dose: 0.06 mg/kg/injection, schedule: Q01DX Z (ip), vehicle: carboxymethylcellulose (CMC)): 147 % of control | T/C (dose: 31.0 micrograms/kg/injection, schedule: Q01DX Z (ip), vehicle: carboxymethylcellulose (CMC)): 126 % of control | T/C (dose: 63.0 micrograms/kg/injection, schedule: Q01DX Z (ip), vehicle: carboxymethylcellulose (CMC)): 148 % of control | T/C (dose: 250.0 micrograms/kg/injection, schedule: Q01DX010 (ip), vehicle: saline): 140 % of control | survivor count (dose: 1000.0 micrograms/kg/injection, schedule: Q01DX010 (ip), vehicle: saline): 6 of 6

C[C@]12CCC(=O)C=C1CC[C@@H]1[C@@H]2C(=O)C[C@@]2(C)[C@H]1CC[C@]2(O)C(=O)CO
survivor count (dose: 400.0 mg/kg/injection, schedule: Q01DX Z (sc), vehicle: steroid suspending solution): 6 of 6

Oc1cc(CN(CCCl)CCCl)c(O)cc1CN(CCCl)CCCl
T/C (dose: 0.24 mg/kg/injection, schedule: Q01DX Z (sc), vehicle: steroid suspending solution): 135 % of control [5 of 6 alive] | T/C (dose: 0.99 mg/kg/injection, schedule: Q01DX Z (sc), vehicle: steroid suspending solution): 132 % of control | survivor count (dose: 2.5 mg/kg/injection, schedule: Q01DX010 (ip), vehicle: saline): 3 of 6 | T/C (dose: 3.75 mg/kg/injection, schedule: Q01DX Z (sc), vehicle: steroid suspending solution): 128 % of control | survivor count (dose: 15.0 mg/kg/injection, schedule: Q01DX Z (sc), vehicle: steroid suspending solution): 3 of 6

CC[C@]1(O)C[C@H]2CN(CCc3c([nH]c4ccccc34)[C@@](C(=O)OC)(c3cc4c(cc3OC)N(C=O)[C@H]3[C@@](O)(C(=O)OC)[C@H](OC(C)=O)[C@]5(CC)C=CCN6CC[C@]43[C@@H]65)C2)C1
T/C (dose: 0.03 mg/kg/injection, schedule: Q01DX010 (ip), vehicle: saline): 115, 118, 122, 125 % of control | T/C (dose: 0.06 mg/kg/injection, schedule: Q01DX010 (ip), vehicle: saline): 117, 130, 133, 146 % of control | T/C (dose: 0.12 mg/kg/injection, schedule: Q01DX010 (ip), vehicle: saline): 123, 150, 152, 161 % of control | T/C (dose: 0.12 mg/kg/injection, schedule: Q01DX Z (ip), vehicle: water): 129 % of control | T/C (dose: 0.25 mg/kg/injection, schedule: Q01DX010 (ip), vehicle: saline): 127, 170, 188, 237 % of control | T/C (dose: 0.25 mg/kg/injection, schedule: Q01DX Z (ip), vehicle: water): 145 % of control | T/C [5]: 92 and 100 % of control | survivor count [5]: 6 of 6 | T/C (dose: 0.5 mg/kg/injection, schedule: Q01DX Z (ip), vehicle: water): 139 % of control

O=c1[nH]cc(F)c(=O)[nH]1
T/C [6]: 127 and 130 % of control | T/C (dose: 6.25 mg/kg/injection, schedule: Q01DX Z (ip), vehicle: saline): 135 % of control | survivor count (dose: 100.0 mg/kg/injection, schedule: Q01DX Z (ip), vehicle: saline): 6 of 6

[I][Hg][CH2]C1COC([CH2][Hg][I])CO1 (centres undefined)
T/C (dose: 3.13 mg/kg/injection, schedule: Q01DX010 (ip), vehicle: saline): 130 % of control | T/C (dose: 60.0 mg/kg/injection, schedule: Q01DX Z (ip), vehicle: carboxymethylcellulose (CMC)): 139 % of control | T/C [7]: 131 % of control | survivor count [7]: 0 of 6 | survivor count (dose: 240.0 mg/kg/injection, schedule: Q01DX Z (ip), vehicle: carboxymethylcellulose (CMC)): 0 of 6 | survivor count (dose: 480.0 mg/kg/injection, schedule: Q01DX Z (ip), vehicle: carboxymethylcellulose (CMC)): 0 of 6

CCn1cnc2c(=S)nc[nH]c21
T/C [2]: 127 % of control | survivor count (dose: 250.0 mg/kg/injection, schedule: Q01DX Z (ip), vehicle: carboxymethylcellulose (CMC)): 4 of 6

CC[C@H](c1ccc(O)cc1)[C@@H](CC)c1ccc(O)cc1
survivor count (dose: 31.25 mg/kg/injection, schedule: Q01DX Z (sc), vehicle: steroid suspending solution): 6 of 6 | survivor count (dose: 62.5 mg/kg/injection, schedule: Q01DX Z (sc), vehicle: steroid suspending solution): 6 of 6 | survivor count (dose: 125.0 mg/kg/injection, schedule: Q01DX Z (sc), vehicle: steroid suspending solution): 4 of 6 | survivor count (dose: 250.0 mg/kg/injection, schedule: Q01DX Z (sc), vehicle: steroid suspending solution): 2 of 6

NC(Cc1ccc(N(CCCl)CCCl)cc1)C(=O)O (centres undefined)
T/C (dose: 2.5 mg/kg/injection, schedule: Q01DX Z (ip), vehicle: carboxymethylcellulose (CMC)): 140 % of control | T/C [6]: 130 % of control | T/C (dose: 10.0 mg/kg/injection, schedule: Q01DX010 (ip), vehicle: saline): 144 % of control | survivor count (dose: 20.0 mg/kg/injection, schedule: Q01DX010 (ip), vehicle: saline): 6 of 6

O=C(Nc1ccc(C2=NCCN2)cc1)c1cccc(C(=O)Nc2ccc(C3=NCCN3)cc2)c1
survivor count (dose: 128.0 mg/kg/injection, schedule: Q01DX010 (ip), vehicle: saline): 6 of 10 | T/C (dose: 150.0 mg/kg/injection, schedule: Q01DX Z (ip), vehicle: carboxymethylcellulose (CMC)): 135 % of control | survivor count (dose: 300.0 mg/kg/injection, schedule: Q01DX Z (ip), vehicle: water): 3 of 6

CC(=O)Nc1ccc(/C=N/Nc2ccc([N+](=O)[O-])cn2)cc1
survivor count (dose: 31.3 mg/kg/injection, schedule: Q01DX010 (ip), vehicle: saline): 6 of 6 | survivor count (dose: 62.5 mg/kg/injection, schedule: Q01DX010 (ip), vehicle: saline): 6 of 6 | survivor count [2]: 6 of 6 | survivor count (dose: 250.0 mg/kg/injection, schedule: Q01DX010 (ip), vehicle: saline): 4 of 6

Cn1cc(NC(=O)c2cc(NC(=O)CN=C(N)N)cn2C)cc1C(=O)NCCC(=N)N
survivor count (dose: 50.0 mg/kg/injection, schedule: Q01DX Z (ip), vehicle: saline): 2 of 6

Nc1nc(F)nc2c1ncn2C1OC(CO)C(O)C1O (centres undefined)
survivor count [4]: 6 of 6

O=C(O)CCCc1ccc(N(CCCl)CCCl)cc1
T/C (dose: 12.5 mg/kg/injection, schedule: Q01DX010 (ip), vehicle: saline): 130 % of control (2×) | survivor count (dose: 12.5 mg/kg/injection, schedule: Q01DX Z (ip), vehicle: carboxymethylcellulose (CMC)): 3 of 6 | survivor count (dose: 25.0 mg/kg/injection, schedule: Q01DX010 (ip), vehicle: saline): 0 of 6 and 3 of 6 | survivor count (dose: 25.0 mg/kg/injection, schedule: Q01DX Z (ip), vehicle: carboxymethylcellulose (CMC)): 3 of 6 | survivor count (dose: 50.0 mg/kg/injection, schedule: Q01DX Z (ip), vehicle: carboxymethylcellulose (CMC)): 1 of 6 and 3 of 6
